PubChem BioAssay AID1224826 | NIAID, 2016
Purpose: 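Regulators of Tlr4 signalling leading to Tnf-alpha expression in macrophages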 (primary screen). Cell system: RAW264.7 G9 macrophages from mouse bearing reporters for p65 (GFP) and the Tnf promoter (mCherry). Knock-down reagent: siRNA pool against mouse genes, 100 nM. Timing: 16 h of LPS stimulation, after 2 days of siRNA transfection. Challenge: bacterial lipopolysaccharide (Salmonella minnesota R595), 10 ng/ml. Measured: 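Imaged Tnf reporter mCherry in nuclei, minus background, normalised per plate to the median and expressed as robust z-scores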. Scale: Tnf reporter robust z-score: higher = stronger Tnf promoter reporter signal after LPS; Tnf reporter intensity: higher = stronger Tnf promoter reporter signal. Call rule: 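a well counts as active at a score of -1.3 or below (Tlr4 knock-down control median) or above 3 (raised signal); controls and wells holding fewer than 50 cells are excluded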. Meaning of the calls: active = Tnf reporter clearly lowered or raised; inactive = no clear change in Tnf reporter.
The whole screen tested about 17,000 reagents; this is an unselected part. About 1,110 of them (6.6%) count as active. 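Active means lowered or raised reporter signal; replicate intensities are raw and not normalised per plate.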

no.	gene	Tnf reporter robust z-score	fewer than 50 cells in well	Tnf reporter intensity, replicate 1	Tnf reporter intensity, replicate 2	Outcome
1	Nsg1	-0.73	enough cells in well	171	89.2	inactive
2	Zfp954	1.13	enough cells in well	263	185	inactive
3	Oas1f	-0.31	enough cells in well	197	111	inactive
4	Sf3b1		fewer than 50 cells per well; well left out of calls	0	36.8	inactive
5	Esrp1		fewer than 50 cells per well; well left out of calls	274	88.4	inactive
6	Elmod3	0.73	enough cells in well	169	214	inactive
7	Rabep1	0.76	enough cells in well	175	150	inactive
8	Or6c65	-0.37	enough cells in well	60.1	101	inactive
9	Fbxl15	0.77	enough cells in well	309	174	inactive
10	Dph3	1.04	enough cells in well	332	100	inactive
11	Get4	2.3	enough cells in well	462	138	inactive
12	Vmn1r230	0.37	enough cells in well	298	101	inactive
13	Tcf4	-0.49	enough cells in well	218	97.5	inactive
14	Cep57		fewer than 50 cells per well; well left out of calls	157	40.8	inactive
15	Fam20c	0.12	enough cells in well	185	250	inactive
16	Mcts1	0.57	enough cells in well	279	273	inactive
17	Krt33a	0.1	enough cells in well	139	73.1	inactive
18	Cnn2	1.98	enough cells in well	261	313	inactive
19	Exd2	0.37	enough cells in well	164	227	inactive
20	Necab2	-1.44	enough cells in well	101	70.8	active
21	Atrx	-0.28	enough cells in well	141	134	inactive
22	Drc11l		fewer than 50 cells per well; well left out of calls	185	60.2	inactive
23	Kif20b	-0.16	enough cells in well	284	166	inactive
24	Aimp1	-0.06	enough cells in well	274	209	inactive
25	Prmt5	-1.02	enough cells in well	186	139	inactive
26	Synpo2	0.36	enough cells in well	130	106	inactive
27	Setx	-0.18	enough cells in well	130	183	inactive
28	Zfand6		fewer than 50 cells per well; well left out of calls	248	113	inactive
29	Kcna3	-0.77	enough cells in well	177	111	inactive
30	Ahdc1	0.91	enough cells in well	262	208	inactive
31	Dpep2	-0.21	enough cells in well	210	197	inactive
32	Eif4e	-0.77	enough cells in well	184	155	inactive
33	Enox2	-0.33	enough cells in well	182	137	inactive
34	Ret	-0.58	enough cells in well	141	145	inactive
35	Or51ag1	1.98	enough cells in well	110	266	inactive
36	Hao2	0.2	enough cells in well	330	130	inactive
37	Sh3bp5l	-0.7	enough cells in well	119	160	inactive
38	Cog3	-2.12	enough cells in well	39.7	59.8	active
39	Lrp4	0.43	enough cells in well	202	180	inactive
40	Bag5	-0.09	enough cells in well	136	163	inactive
41	Mbp	-0.04	enough cells in well	278	187	inactive
42	Slc7a8	-0.13	enough cells in well	108	84	inactive
43	Cnot6l	0.96	enough cells in well	209	209	inactive
44	Dnajb13	1.32	enough cells in well	322	116	inactive
45	Myo7b	-0.34	enough cells in well	210	88.1	inactive
46	Hic1	-0.06	enough cells in well	225	191	inactive
47	Mknk2	1.32	enough cells in well	215	296	inactive
48	F830004M19Rik	-0.03	enough cells in well	235	142	inactive
49	Golm2	0.05	enough cells in well	204	162	inactive
50	Slc38a4		fewer than 50 cells per well; well left out of calls	40.6	27.6	inactive
51	Zfp120	-0.15	enough cells in well	124	112	inactive
52	Cimap1a	-0.03	enough cells in well	201	136	inactive
53	Tfam	0.69	enough cells in well	279	170	inactive
54	Or3a1b	-0.81	enough cells in well	114	99.3	inactive
55	Far2	-0.41	enough cells in well	177	102	inactive
56	Sipa1	-0.47	enough cells in well	279	144	inactive
57	Gypa	0.18	enough cells in well	240	189	inactive
58	Ly6m	4.14	enough cells in well	362	152	active
